Source: PubChem BioAssay AID1224830 (NIAID, 2016)
Here is a random part of about 18,000 deposited reagents. About 2,900 of them (16%) were called active. 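Calls are made per well; low scores hint the gene aids the LPS response, high scores that it dampens it.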 Repeated entries: four replicate wells of each siRNA pool.

Assay: 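Regulators of TLR4 signalling towards TNF-alpha in macrophage-like cells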 (primary screen)
System: human THP-1 monocytic leukaemia cells, TNF dual-luciferase reporter clone, PMA-differentiated to macrophage-like cells
Reagents: siRNA pool against human genes, 50 nM
Timing: LPS for 4 h, given about 3 days after siRNA transfection
Challenge: bacterial LPS (TLR4 ligand), 10 ng/ml
Measurement: 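Ratio of firefly to renilla light, scaled to the plate median and expressed as a robust z-score per replicate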
Direction: TNF reporter robust z-score: higher = stronger TNF reporter response to LPS
Call rule: 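Each well counts as active if its z-score is over 2.8 or under -1.5; controls are left without a call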

target gene | TNF reporter robust z-score | call
H4C6 (H4 clustered histone 6) | -1.27 | inactive
H4C6 (H4 clustered histone 6) | -1.03 | inactive
H4C6 (H4 clustered histone 6) | 0.41 | inactive
H4C6 (H4 clustered histone 6) | -0.62 | inactive
DCUN1D2 (defective in cullin neddylation 1 domain containing 2) | 4.79 | active
DCUN1D2 (defective in cullin neddylation 1 domain containing 2) | 0.16 | inactive
DCUN1D2 (defective in cullin neddylation 1 domain containing 2) | 2.12 | inactive
DCUN1D2 (defective in cullin neddylation 1 domain containing 2) | 0.38 | inactive
CSRP1 (cysteine and glycine rich protein 1) | 0.9 | inactive
CSRP1 (cysteine and glycine rich protein 1) | 1.26 | inactive
CSRP1 (cysteine and glycine rich protein 1) | 1.94 | inactive
CSRP1 (cysteine and glycine rich protein 1) | 0.45 | inactive
SMAP1 (small ArfGAP 1) | 2.48 | inactive
SMAP1 (small ArfGAP 1) | -0.17 | inactive
SMAP1 (small ArfGAP 1) | -0.21 | inactive
SMAP1 (small ArfGAP 1) | 0.11 | inactive
ETV3L (ETS variant transcription factor 3 like) | -0.9 | inactive
ETV3L (ETS variant transcription factor 3 like) | -1.15 | inactive
ETV3L (ETS variant transcription factor 3 like) | -1.23 | inactive
ETV3L (ETS variant transcription factor 3 like) | -0.47 | inactive
DKC1 (dyskerin pseudouridine synthase 1) | 0.88 | inactive
DKC1 (dyskerin pseudouridine synthase 1) | 0.57 | inactive
DKC1 (dyskerin pseudouridine synthase 1) | -0.14 | inactive
DKC1 (dyskerin pseudouridine synthase 1) | 1.33 | inactive
KCNJ16 (potassium inwardly rectifying channel subfamily J member 16) | 0.37 | inactive
KCNJ16 (potassium inwardly rectifying channel subfamily J member 16) | -0.96 | inactive
KCNJ16 (potassium inwardly rectifying channel subfamily J member 16) | -0.9 | inactive
KCNJ16 (potassium inwardly rectifying channel subfamily J member 16) | -0.56 | inactive
CYP2U1 (cytochrome P450 family 2 subfamily U member 1) | 0.39 | inactive
CYP2U1 (cytochrome P450 family 2 subfamily U member 1) | 0.5 | inactive
CYP2U1 (cytochrome P450 family 2 subfamily U member 1) | 0.53 | inactive
CYP2U1 (cytochrome P450 family 2 subfamily U member 1) | -0.64 | inactive
ZDHHC24 (zDHHC palmitoyltransferase 24) | 0.1 | inactive
ZDHHC24 (zDHHC palmitoyltransferase 24) | 2.19 | inactive
ZDHHC24 (zDHHC palmitoyltransferase 24) | 0.15 | inactive
ZDHHC24 (zDHHC palmitoyltransferase 24) | -0.12 | inactive
RELCH | 1.94 | inactive
RELCH | 1.41 | inactive
RELCH | -0.28 | inactive
RELCH | 1.55 | inactive
TAX1BP1 (Tax1 binding protein 1) | -0.33 | inactive
TAX1BP1 (Tax1 binding protein 1) | 0.51 | inactive
TAX1BP1 (Tax1 binding protein 1) | -1.08 | inactive
TAX1BP1 (Tax1 binding protein 1) | -0.13 | inactive
SP1 (Sp1 transcription factor) | -1.95 | active
SP1 (Sp1 transcription factor) | -1.92 | active
SP1 (Sp1 transcription factor) | -1.94 | active
SP1 (Sp1 transcription factor) | -1.39 | inactive
CSMD3 (CUB and Sushi multiple domains 3) | -0.01 | inactive
CSMD3 (CUB and Sushi multiple domains 3) | -0.09 | inactive
CSMD3 (CUB and Sushi multiple domains 3) | 0.28 | inactive
CSMD3 (CUB and Sushi multiple domains 3) | 0.17 | inactive
AGPAT1 (1-acylglycerol-3-phosphate O-acyltransferase 1) | -0.42 | inactive
AGPAT1 (1-acylglycerol-3-phosphate O-acyltransferase 1) | -0.07 | inactive
AGPAT1 (1-acylglycerol-3-phosphate O-acyltransferase 1) | -0.33 | inactive
AGPAT1 (1-acylglycerol-3-phosphate O-acyltransferase 1) | -0.01 | inactive
PREB (prolactin regulatory element binding) | -1.39 | inactive
PREB (prolactin regulatory element binding) | -0.43 | inactive
PREB (prolactin regulatory element binding) | -0.65 | inactive
PREB (prolactin regulatory element binding) | 0.67 | inactive
NDUFC1 (NADH:ubiquinone oxidoreductase subunit C1) | 0.36 | inactive
NDUFC1 (NADH:ubiquinone oxidoreductase subunit C1) | -0.32 | inactive
NDUFC1 (NADH:ubiquinone oxidoreductase subunit C1) | 0.24 | inactive
NDUFC1 (NADH:ubiquinone oxidoreductase subunit C1) | 0.11 | inactive
CBR4 (carbonyl reductase 4) | -1.01 | inactive
CBR4 (carbonyl reductase 4) | -0.91 | inactive
CBR4 (carbonyl reductase 4) | -1.04 | inactive
CBR4 (carbonyl reductase 4) | -0.78 | inactive
OR7D2 (olfactory receptor family 7 subfamily D member 2) | -0.53 | inactive
OR7D2 (olfactory receptor family 7 subfamily D member 2) | -0.67 | inactive
OR7D2 (olfactory receptor family 7 subfamily D member 2) | -0.73 | inactive
OR7D2 (olfactory receptor family 7 subfamily D member 2) | 0.37 | inactive
ENDOG (endonuclease G) | -0.75 | inactive
ENDOG (endonuclease G) | 0.07 | inactive
ENDOG (endonuclease G) | -1.64 | active
ENDOG (endonuclease G) | -1.08 | inactive
OTOL1 (otolin 1) | 1.05 | inactive
OTOL1 (otolin 1) | 2.56 | inactive
OTOL1 (otolin 1) | -0.54 | inactive
OTOL1 (otolin 1) | 1.65 | inactive
STX17 (syntaxin 17) | -1.3 | inactive
STX17 (syntaxin 17) | -0.89 | inactive
STX17 (syntaxin 17) | -1.54 | active
STX17 (syntaxin 17) | -1.18 | inactive
DOCK8 (dedicator of cytokinesis 8) | -1.34 | inactive
DOCK8 (dedicator of cytokinesis 8) | -0.7 | inactive
DOCK8 (dedicator of cytokinesis 8) | -0.5 | inactive
DOCK8 (dedicator of cytokinesis 8) | -0.67 | inactive
UGT1A5 (UDP glucuronosyltransferase family 1 member A5) | – | inactive
UGT1A5 (UDP glucuronosyltransferase family 1 member A5) | 1.89 | inactive
UGT1A5 (UDP glucuronosyltransferase family 1 member A5) | 1.4 | inactive
UGT1A5 (UDP glucuronosyltransferase family 1 member A5) | 1.77 | inactive
UGT1A5 (UDP glucuronosyltransferase family 1 member A5) | 2.73 | inactive
PTPRE (protein tyrosine phosphatase receptor type E) | 1.52 | inactive
PTPRE (protein tyrosine phosphatase receptor type E) | 3.56 | active
PTPRE (protein tyrosine phosphatase receptor type E) | 1.41 | inactive
PTPRE (protein tyrosine phosphatase receptor type E) | 3.53 | active
CPNE1 (copine 1) | -0.54 | inactive
CPNE1 (copine 1) | -0.1 | inactive
CPNE1 (copine 1) | -0.71 | inactive
CPNE1 (copine 1) | -0.62 | inactive
OR52A4P (olfactory receptor family 52 subfamily A member 4 pseudogene) | -0.39 | inactive
OR52A4P (olfactory receptor family 52 subfamily A member 4 pseudogene) | -0.6 | inactive
OR52A4P (olfactory receptor family 52 subfamily A member 4 pseudogene) | -1.19 | inactive
OR52A4P (olfactory receptor family 52 subfamily A member 4 pseudogene) | -1.17 | inactive
COBLL1 (cordon-bleu WH2 repeat protein like 1) | -0.05 | inactive
COBLL1 (cordon-bleu WH2 repeat protein like 1) | 0.94 | inactive
COBLL1 (cordon-bleu WH2 repeat protein like 1) | -0.13 | inactive
COBLL1 (cordon-bleu WH2 repeat protein like 1) | -0.19 | inactive
THAP11 (THAP domain containing 11) | -0.54 | inactive
THAP11 (THAP domain containing 11) | -0.25 | inactive
THAP11 (THAP domain containing 11) | 0.08 | inactive
THAP11 (THAP domain containing 11) | 0.3 | inactive

Reprinted from the listing for reference:
target gene | TNF reporter robust z-score | call
DKC1 (dyskerin pseudouridine synthase 1) | 0.88 | inactive
DKC1 (dyskerin pseudouridine synthase 1) | 0.57 | inactive
DKC1 (dyskerin pseudouridine synthase 1) | -0.14 | inactive
DKC1 (dyskerin pseudouridine synthase 1) | 1.33 | inactive
KCNJ16 (potassium inwardly rectifying channel subfamily J member 16) | 0.37 | inactive
KCNJ16 (potassium inwardly rectifying channel subfamily J member 16) | -0.96 | inactive
KCNJ16 (potassium inwardly rectifying channel subfamily J member 16) | -0.9 | inactive
